The record followed here is patent US20060233870A1, “Compositions and methods for drug delivery” (Noven Pharmaceuticals, Inc., priority 1999, published 2006).

The conditions of the data set: increasing amount of carboxy functional acrylic (DT 87-2852 or DT 87-2296) versus non-functional DT 87-2097; FIG. 4.

`CN1[C@@H]2C[C@@H](OC(=O)[C@H](CO)c3ccccc3)C[C@H]1[C@@H]1O[C@@H]12` [scopolamine]: the scopolamine flux result was “decreases the flux of the scopolamine”.
